These are yes or no findings as the source states them, for the method shown. For some of these results: Binding seen in cells or lysates may run through a third protein. Some results given as binding are weak or reduced against the parent protein; the word gives no strength. For some of these results: Sequences can lack the tags named with a protein.

Chains of the proteins cited; added tags and fusions are not shown. Lines headed by an entry give the natural chain unless they say otherwise; changes in a name come on top.
UniProt P61758: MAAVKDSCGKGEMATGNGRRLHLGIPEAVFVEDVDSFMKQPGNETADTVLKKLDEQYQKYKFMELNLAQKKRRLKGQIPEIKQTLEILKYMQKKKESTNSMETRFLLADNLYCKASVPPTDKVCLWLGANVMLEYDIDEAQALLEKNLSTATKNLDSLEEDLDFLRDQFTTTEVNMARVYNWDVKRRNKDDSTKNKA
UniProt O60925: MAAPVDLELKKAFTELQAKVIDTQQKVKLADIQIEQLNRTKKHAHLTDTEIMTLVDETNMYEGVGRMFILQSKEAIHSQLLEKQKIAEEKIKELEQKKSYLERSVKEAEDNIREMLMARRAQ
UniProt Q8TBC4: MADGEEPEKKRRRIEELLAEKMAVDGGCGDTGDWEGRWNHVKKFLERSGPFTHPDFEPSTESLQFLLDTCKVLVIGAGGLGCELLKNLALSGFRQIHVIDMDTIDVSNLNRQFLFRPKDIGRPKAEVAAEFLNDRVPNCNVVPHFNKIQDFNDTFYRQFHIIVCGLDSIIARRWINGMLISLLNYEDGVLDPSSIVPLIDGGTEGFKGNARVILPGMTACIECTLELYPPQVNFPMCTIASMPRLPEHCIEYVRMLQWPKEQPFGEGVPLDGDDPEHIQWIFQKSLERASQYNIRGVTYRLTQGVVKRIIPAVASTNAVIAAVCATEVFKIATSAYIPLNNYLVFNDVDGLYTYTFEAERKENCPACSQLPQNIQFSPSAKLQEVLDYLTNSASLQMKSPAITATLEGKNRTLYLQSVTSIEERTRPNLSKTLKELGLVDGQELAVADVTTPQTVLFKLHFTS

Assay [1] has as its target His-PFDN3 (human) (UniProt P61758). Put plainly: BLI; both purified. In general terms: Biolayer interferometry detects binding as a change in optical thickness at a sensor tip.
Assay [2] has the same target. Put plainly: pull-down; both purified.
The next assay deals with T1, His-CDPK1 (toxoplasma) (UniProt Q9BJF5).
T1 sequence: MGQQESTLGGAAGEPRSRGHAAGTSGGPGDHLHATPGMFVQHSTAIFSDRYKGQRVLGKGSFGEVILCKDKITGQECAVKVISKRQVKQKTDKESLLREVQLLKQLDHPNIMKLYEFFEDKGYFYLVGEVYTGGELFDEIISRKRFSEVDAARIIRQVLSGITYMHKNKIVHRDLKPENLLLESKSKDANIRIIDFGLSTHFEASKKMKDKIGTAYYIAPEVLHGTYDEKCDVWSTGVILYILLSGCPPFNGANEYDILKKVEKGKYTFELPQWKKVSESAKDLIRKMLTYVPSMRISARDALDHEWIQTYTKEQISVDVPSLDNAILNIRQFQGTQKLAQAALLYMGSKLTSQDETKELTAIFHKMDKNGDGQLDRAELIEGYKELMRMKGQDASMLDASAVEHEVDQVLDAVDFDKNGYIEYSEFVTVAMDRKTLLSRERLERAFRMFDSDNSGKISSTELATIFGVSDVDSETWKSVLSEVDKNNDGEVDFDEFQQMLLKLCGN
Put plainly: pull-down; both purified.

The target in assay [3] is PFDN complex (Myc-tagged PFDN1-6 subunits) (UniProt O60925). Put plainly: co-IP.

As for GST-UBA3 (from UniProt Q8TBC4 1-463), the binding entry in the assay with His-PFDN3 (human) [1] and with His-PFDN3 (human) [2] was “binds” throughout.
On to “PFDN3 protein (His tag removed) (from UniProt P61758 1-197)”, for which, in the assay with His-CDPK1 (toxoplasma), the binding result is reported as “no binding”.
For the substance “endogenous UBA3 (from UniProt Q8TBC4 1-463)”, in assay [3], the binding result is given as “binds”.

These data come from article PMC12397275.
